Consider 76 compounds from the supplement of paper PMC8732350.

Several values for one entry are separate records, joined by “and”; a condition that tells them apart may be missing. Equal entries are not always repeated. Structures can show the parent of a compound that is named as a salt. ± gives the standard deviation of the averaged measurements. This is one part of the list. This data set is noisy: repeats of one test often differ as much as different tests do.

The test deals with A549. Nature of the test: surface PD-L1 immunofluorescence intensity relative to IFN-gamma-only control (ratio); higher = more PD-L1 expression. The settings on record: 10 µM; exposure time 24 h; IFN-gamma 100 ng/mL.
Turning to `O=C(NCc1ccccc1)c1csc(Nc2ccncn2)n1` [Thiazovivin], the “surface PD-L1 immunofluorescence intensity” value is 0.94.

As for `CC[C@H](C)[C@H](N)C1=N[C@H](C(=O)N[C@@H](CC(C)C)C(=O)N[C@H](CCC(=O)O)C(=O)N[C@H](C(=O)N[C@H]2CCCCNC(=O)[C@H](CC(N)=O)NC(=O)[C@@H](CC(=O)O)NC(=O)[C@H](Cc3cnc[nH]3)NC(=O)[C@@H](Cc3ccccc3)NC(=O)[C@H]([C@@H](C)CC)NC(=O)[C@@H](CCCN)NC2=O)[C@@H](C)CC)CS1` [Bacitracin], the “surface PD-L1 immunofluorescence intensity” value turned out to be 0.974. As for `CC(=O)C1=C(O)C=C2Oc3c(C(C)=O)c(O)c(C)c(O)c3[C@]2(C)C1=O` [Usnic acid], the figure is 1.09; as for `O=C(CCc1ccc(O)cc1)c1c(O)cc(O)cc1O` [Phloretin (Dihydronaringenin)], 1.17.

On to `COc1cccc(-c2cc(=O)c3ccccc3o2)c1N`, for which the “surface PD-L1 immunofluorescence intensity” value was 0.948 and 0.897 and 0.866.

For `C=CCNC(N)=S` [Allylthiourea], the “surface PD-L1 immunofluorescence intensity” value worked out at 0.961. As for `CN(C)CCOC(C)(c1ccccc1)c1ccccn1` (stereo unspecified) [Doxylamine succinate], the “surface PD-L1 immunofluorescence intensity” value worked out at 0.912.

Consider `Oc1c(I)cc(Cl)c2cccnc12` [Clioquinol], for which the “surface PD-L1 immunofluorescence intensity” value was 1.07. On to `C[C@@H](O)[C@H]1C(=O)N2C(C(=O)O)=C(S[C@@H]3CN[C@H](CNS(N)(=O)=O)C3)[C@H](C)[C@H]12` [Doripenem Hydrate], for which the “surface PD-L1 immunofluorescence intensity” value is 0.961. Regarding `CC(C)(C#N)c1cc(Cn2cncn2)cc(C(C)(C)C#N)c1` [Anastrozole], the “surface PD-L1 immunofluorescence intensity” value worked out at 0.971. As for `CCc1cc(Nc2nccc(-c3c(-c4ccc(OC)c(C(=O)Nc5c(F)cccc5F)c4)nc4ccccn34)n2)c(OC)cc1N1CCC(N2CCN(S(C)(=O)=O)CC2)CC1`, the “surface PD-L1 immunofluorescence intensity” value came to 1.12. Consider `CN(C(=O)C(Cl)Cl)c1ccc(OC(=O)c2ccco2)cc1` [Diloxanide furoate], for which the “surface PD-L1 immunofluorescence intensity” value is 0.989. Take `Nc1ccn([C@H]2CC[C@@H](CO)O2)c(=O)n1` [Zalcitabine]: the “surface PD-L1 immunofluorescence intensity” value came to 1.08. As for `CN1CCC(=C2c3ccccc3CCc3cccnc32)CC1` [Azatadine dimaleate], the figure is 1.01; as for `Nc1nc2ccc(OC(F)(F)F)cc2s1` [Riluzole], 1.07. The value for `Nc1nc2ccc(OC(F)(F)F)cc2s1` [Riluzole hydrochloride] was 0.9818 ± 0.0078; that for `C(=C\c1ccccc1)/CN1CCN(C(c2ccccc2)c2ccccc2)CC1` [Cinnarizine] was 0.902. Regarding `C[C@]1(O)C[C@@H](c2nc(-c3ccc4ccc(-c5ccccc5)nc4c3)c3c(N)nccn32)C1` [OSI-906 (Linsitinib)], the “surface PD-L1 immunofluorescence intensity” value is 1.05. As for `C[C@@H]1CCO[C@H]2Cn3cc(C(=O)NCc4ccc(F)cc4F)c(=O)c(O)c3C(=O)N12`, the “surface PD-L1 immunofluorescence intensity” value worked out at 1. For the compound `O=C(C1CCCCC1)N1CC(=O)N2CCc3ccccc3C2C1` (stereo unspecified) [Praziquantel], the “surface PD-L1 immunofluorescence intensity” value amounted to 0.774.

For the compound `CC(=O)NCCCS(=O)(=O)O` [Acamprosate calcium], the “surface PD-L1 immunofluorescence intensity” value was found to be 1.07. Take `O=C(O)c1cc(/N=N/c2ccc(O)c(C(=O)O)c2)ccc1O` [Olsalazine Sodium]: the “surface PD-L1 immunofluorescence intensity” value came to 1.06.

As to `CCOC(=O)O[C@]1(C(=O)COC(=O)CC)CC[C@H]2[C@@H]3CCC4=CC(=O)C=C[C@]4(C)[C@H]3[C@@H](O)C[C@@]21C` [Prednicarbate], the “surface PD-L1 immunofluorescence intensity” value turned out to be 0.857.

Take `N#Cc1cc2c(OCC(O)CN3CCN(C(c4ccccc4)c4ccccc4)CC3)cccc2[nH]1` (stereo unspecified): the “surface PD-L1 immunofluorescence intensity” value was 0.956. Regarding `CC(C)(C)NCC(O)COc1cccc2c1CCC(=O)N2` (stereo unspecified) [Carteolol hydrochloride], the “surface PD-L1 immunofluorescence intensity” value was determined as 0.928. On to `C=C1c2c(Cl)ccc(O)c2C(=O)C2=C(O)[C@]3(O)C(=O)C(C(N)=O)=C(O)[C@@H](N(C)C)[C@@H]3[C@@H](O)[C@H]12.O=C(O)c1cc(S(=O)(=O)O)ccc1O` [Meclocycline sulfosalicylate], for which the “surface PD-L1 immunofluorescence intensity” value came to 0.94.

With `C/C=C1\C(=O)C[C@H]2[C@@H]3CCC4=CC(=O)CC[C@]4(C)[C@H]3CC[C@]12C` [Guggulsterone], the “surface PD-L1 immunofluorescence intensity” value amounted to 0.974. On to `C/C=C1\C(=O)C[C@H]2[C@@H]3CCC4=CC(=O)CC[C@]4(C)[C@H]3CC[C@]12C` [Z-Guggulsterone], for which the “surface PD-L1 immunofluorescence intensity” value amounted to 1.05. As for `C[C@H](CCC(=O)O)[C@H]1CC[C@H]2[C@@H]3[C@H](O)C[C@@H]4C[C@H](O)CC[C@]4(C)[C@H]3CC[C@]12C` [Chenodeoxycholic acid], the “surface PD-L1 immunofluorescence intensity” value came out at 0.985 ± 0.075.

Take `C[C@H](CCC(=O)O)[C@H]1CC[C@H]2[C@@H]3[C@H](O)C[C@@H]4C[C@H](O)CC[C@]4(C)[C@H]3CC[C@]12C` [Chenodiol]: the “surface PD-L1 immunofluorescence intensity” value turned out to be 0.897.

Take `C[N+](C)(C)CC[N+]1(C)Cc2c(Cl)c(Cl)c(Cl)c(Cl)c2C1` [Chlorisondamine diiodide]: the “surface PD-L1 immunofluorescence intensity” value was found to be 0.999. On to `CN1CCN(c2c(F)cc3c(=O)c(C(=O)O)cn(CCF)c3c2F)CC1` [Fleroxacin], for which the “surface PD-L1 immunofluorescence intensity” value was 0.978. With `CC(=O)OCC(CCn1cnc2cnc(N)nc21)COC(C)=O` [Famciclovir], the “surface PD-L1 immunofluorescence intensity” value was 0.975. Consider `COc1ccc([C@@H]2CC(=O)c3c(O)cc(O[C@@H]4O[C@H](CO)[C@@H](O)[C@H](O)[C@H]4O[C@@H]4O[C@@H](C)[C@H](O)[C@@H](O)[C@H]4O)cc3O2)cc1O` [Neohesperidin], for which the “surface PD-L1 immunofluorescence intensity” value was 1.13. As to `NNc1nncc2ccccc12` [Hydralazine HCl], the “surface PD-L1 immunofluorescence intensity” value was found to be 1.02. With `NNc1nncc2ccccc12` [Hydralazine hydrochloride], the “surface PD-L1 immunofluorescence intensity” value turned out to be 0.959. As for `O=C(/C=C/c1ccc(O)c(O)c1)OCCc1ccccc1` [Caffeic acid phenethyl ester], the “surface PD-L1 immunofluorescence intensity” value came to 0.918.

`COc1c2occc2c(OC)c2c(=O)cc(C)oc12` [Khellin]: the “surface PD-L1 immunofluorescence intensity” value came to 0.916. As to `Nc1cc(C(Cl)=C(Cl)Cl)c(S(N)(=O)=O)cc1S(N)(=O)=O` [Clorsulon], the “surface PD-L1 immunofluorescence intensity” value was 1.02. For the compound `Cc1ccc2c(c1)C(=O)C1(O)CCN(c3ccccc3)C1=N2` (stereo unspecified) [(?)-Blebbistatin], the “surface PD-L1 immunofluorescence intensity” value is 0.992. For `CC[C@H](C)C(=O)O[C@H]1CCC=C2C=C[C@H](C)[C@H](CC[C@@H]3C[C@@H](O)CC(=O)O3)[C@H]21` [Mevastatin], the “surface PD-L1 immunofluorescence intensity” value was 0.985 ± 0.02. On to `O=c1oc2ccccc2c(O)c1Cc1c(O)c2ccccc2oc1=O` [Dicumarol], for which the “surface PD-L1 immunofluorescence intensity” value was 1. With `Cn1ccc2cc(NC(=O)Nc3cccnc3)ccc21`, the “surface PD-L1 immunofluorescence intensity” value was determined as 1.02. On to `CN(C)C[C@@H]1CCn2cc(c3ccccc32)C2=C(C(=O)NC2=O)c2cn(c3ccccc23)CCO1`, for which the “surface PD-L1 immunofluorescence intensity” value was determined as 0.985. As for `CN1CCN(CCCN2c3ccccc3Sc3ccc(Cl)cc32)CC1` [Prochlorperazine dimaleate], the figure is 0.92. For the compound `O=C1c2ccccc2C(=O)c2c1ccc(O)c2O` [Alizarin], the “surface PD-L1 immunofluorescence intensity” value turned out to be 0.968.

Take `CC(/C=C1\SC(=S)N(CC(=O)O)C1=O)=C\c1ccccc1` [Epalrestat]: the “surface PD-L1 immunofluorescence intensity” value was 1.16. In the case of `CCC(=O)OCN1C(=O)C=CC1=O`, the “surface PD-L1 immunofluorescence intensity” value was 0.987. Take `CCN(CC)CCc1nc(-c2ccccc2)no1` [Oxalamine citrate salt]: the “surface PD-L1 immunofluorescence intensity” value worked out at 1.02. On to `CC(C)NCC(O)c1ccc(O)c(O)c1` (single isomer, unassigned; (+)) [(+)-Isoproterenol (+)-bitartrate salt], for which the “surface PD-L1 immunofluorescence intensity” value worked out at 0.979.

As for `COc1ccc([C@]2(C#N)CC[C@@H](C(=O)O)CC2)cc1OC1CCCC1`, the “surface PD-L1 immunofluorescence intensity” value was determined as 1.01. As for `CNCC(O)c1ccc(OC(=O)C(C)(C)C)c(OC(=O)C(C)(C)C)c1` (stereo unspecified) [Dipivefrin hydrochloride], the figure is 0.974; as for `O=C(NCCO)c1cccc(-c2cc(Nc3ccc(OC(F)(F)F)cc3)ncn2)c1`, 1.07; as for `O=S(=O)(O)NC1CCCCC1` [Cyclamic  acid], 0.992. On to `CC(C)NC[C@@H](O)COc1cccc2ccccc12` [(R)-(+)-Propranolol hydrochloride], for which the “surface PD-L1 immunofluorescence intensity” value worked out at 0.89. Consider `CC(C)NC[C@@H](O)COc1cccc2ccccc12` [(R)-Propranolol hydrochloride], for which the “surface PD-L1 immunofluorescence intensity” value was found to be 1.01. Consider `Nc1nc2ccc(Cl)cc2c2nc(-c3ccco3)nn12`, for which the “surface PD-L1 immunofluorescence intensity” value came out at 0.999. Regarding `CCC(C)N(C)C(=O)c1cc2ccccc2c(-c2ccccc2Cl)n1` (stereo unspecified), the “surface PD-L1 immunofluorescence intensity” value is 1.05. For `COc1cc2c(cc1C(F)(F)F)N(C(=O)Nc1cc(F)cc(-c3cccnc3)c1)CC2`, the “surface PD-L1 immunofluorescence intensity” value worked out at 1.07. Regarding `Cc1c(N(C)CS(=O)(=O)O)c(=O)n(-c2ccccc2)n1C` [Dipyrone], the “surface PD-L1 immunofluorescence intensity” value was 1.01.

Regarding `C[C@@H]1CCN(C(=O)CC#N)C[C@@H]1N(C)c1ncnc2[nH]ccc12`, the “surface PD-L1 immunofluorescence intensity” value was 0.747 and 0.696. Regarding `Cc1cc2c(F)c(Oc3ncnn4cc(OC[C@@H](C)OC(=O)[C@H](C)N)c(C)c34)ccc2[nH]1`, the “surface PD-L1 immunofluorescence intensity” value turned out to be 0.979 ± 0.064. Regarding `CNc1cc(OC)c(C(=O)NC2CCN(Cc3ccccc3)C2C)cc1Cl` (stereo unspecified) [Nemonapride], the “surface PD-L1 immunofluorescence intensity” value was found to be 0.997. On to `COc1cc2c(Oc3ccc4[nH]c(C)cc4c3F)ncnc2cc1OCCCN1CCCC1` [Cediranib (AZD2171)], for which the “surface PD-L1 immunofluorescence intensity” value came out at 0.979.

Take `CC(C)NCC(O)c1ccc2ccccc2c1` (stereo unspecified) [Pronethalol hydrochloride]: the “surface PD-L1 immunofluorescence intensity” value was found to be 0.9898 ± 0.0074. Take `CC(=O)O[C@]1(C(C)=O)CC[C@H]2[C@@H]3C[C@H](C)C4=CC(=O)CC[C@]4(C)[C@H]3CC[C@@]21C` [Medroxyprogesterone acetate]: the “surface PD-L1 immunofluorescence intensity” value stood at 0.912. As for `CCCc1c(OCC(O)COc2ccc3c(=O)cc(C(=O)O)oc3c2CCC)ccc(C(C)=O)c1O` (stereo unspecified), the “surface PD-L1 immunofluorescence intensity” value was 0.94. Take `Nc1nc2n[nH]nc2c(=O)[nH]1` [Azaguanine-8]: the “surface PD-L1 immunofluorescence intensity” value was found to be 0.825. Consider `N[C@H](C(=O)O)[C@H](O)c1ccc(O)c(O)c1` [Droxidopa (L-DOPS)], for which the “surface PD-L1 immunofluorescence intensity” value is 0.998. The value for `CN(C)c1nc(N(C)C)nc(N(C)C)n1` [Altretamine] was 0.967. For `NC(=O)C(c1ccccc1)(c1ccccc1)[C@@H]1CCN(CCc2ccc3c(c2)CCO3)C1` [Darifenacin hydrobromide], the “surface PD-L1 immunofluorescence intensity” value was found to be 0.965. As to `CCCNCC(O)COc1ccccc1C(=O)CCc1ccccc1` (stereo unspecified) [Propafenone hydrochloride], the “surface PD-L1 immunofluorescence intensity” value was found to be 0.965. On to `CCCNCC(O)COc1ccccc1C(=O)CCc1ccccc1` (stereo unspecified) [Propafenone], for which the “surface PD-L1 immunofluorescence intensity” value worked out at 1.08. The value for `O=C1c2ccc(Nc3ccc(F)cc3F)cc2CCc2ccc(OC[C@H](O)CO)cc21` [Skepinone-L] was 1.09; that for `COc1ccccc1OCC(O)CN1CCN(CC(=O)Nc2c(C)cccc2C)CC1` (stereo unspecified) [Ranolazine] was 0.996. Take `O=[N+]([O-])c1cccc2cn[nH]c12` [7-Nitroindazole]: the “surface PD-L1 immunofluorescence intensity” value was found to be 1.08.
